# PubChem BioAssay AID504804, Drosophila RNAi Screening Center, 2011
# Aim: 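dsRNAs that improve Kc cell survival under doxorubicin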 (primary screen)
# System: Drosophila Kc cells
# Reagents: long dsRNA against Drosophila genes, 0.5 µg dsRNA per well
# Time to read-out: 96 h (48 h knock-down, then 48 h drug)
# Treatment: doxorubicin 5 µg/ml for 48 h, added 48 h after dsRNA
# Detection: 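Viability measured as cellular ATP by luminescence after 48 h knock-down then 48 h doxorubicin at 5 µg/ml; unnormalised plate counts for each replicate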
# Scale: raw ATP luminescence: higher = more viable cells, protection from doxorubicin
# Call rule: 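z-score of 2 or more over plate mean in both duplicates, retained only when retests and separate dsRNAs confirm the protection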
# In all, the deposit lists about 19,000 reagents; below is a random part of those with a known target gene and a result. In the full data, 47 (0.25%) got an active call. 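Signals are raw, not normalised; exact z-scores behind calls not deposited; actives needed confirmation, so some wells reaching 2 SD are inactive.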 A plus sign joins genes that one reagent is predicted to hit. Reagent sequences are not shown.
gene,dsRNA,"raw ATP luminescence, replicate 1","raw ATP luminescence, replicate 2",Outcome
ppl (pumpless),DRSC11899,19213,25113,inactive
GstD9 (Glutathione S transferase D9),DRSC14185,57380,49817,inactive
CG13738,DRSC10065,62200,57803,inactive
CG14837,DRSC10207,92790,86870,inactive
CG33978,DRSC17106,2.13e5,2.06e5,inactive
CG33109,DRSC16533,88620,83200,inactive
rswl (roswell),DRSC06923,63660,67707,inactive
Cyp6a14 (retired record),DRSC07376,39167,84443,inactive
Vha100-5 (Vacuolar H[+] ATPase 100kD subunit 5),DRSC02175,38270,69417,inactive
CG12641 (retired record),DRSC17848,1.70e5,2.17e5,inactive
CG33322,DRSC03204,71507,61143,inactive
CG14374,DRSC14834,73680,80460,inactive
CG5180,DRSC15731,46270,51140,inactive
CG14323,DRSC14802,1.06e5,87040,inactive
CG42365,DRSC04266,66390,68070,inactive
Ctr1B + Poxm,DRSC16245,55017,52617,inactive
CG12310,DRSC09878,61643,54113,inactive
verm (vermiform),DRSC11038,20813,25963,inactive
gudu,DRSC02820,26823,30430,inactive
CG16837,DRSC04283,38940,45733,inactive
ADD1 (ADD domain-containing protein 1),DRSC07135,68990,56410,inactive
CG13603,DRSC14606,46293,50890,inactive
"mAChR-A (muscarinic Acetylcholine Receptor, A-type)",DRSC04702,67937,63530,inactive
CG31388,DRSC15254,46923,24837,inactive
Acn (Acinus),DRSC02062,73440,57020,inactive
CG10907,DRSC09804,91703,72617,inactive
CG33170,DRSC11854,60337,59097,inactive
CG32163,DRSC09442,71787,93860,inactive
CG7031,DRSC16178,17110,16790,inactive
CR40354 (pseudo),DRSC20923,2.02e5,2.42e5,inactive
Or30a (Odorant receptor 30a),DRSC03385,41490,60723,inactive
Osi19 (Osiris 19),DRSC12569,60870,49503,inactive
CG6574,DRSC16070,54017,56063,inactive
e (ebony),DRSC16936,41203,49693,inactive
CG15296,DRSC17983,3.53e5,3.21e5,inactive
KP78a + KP78b,DRSC16721,43317,46280,inactive
KP78a + KP78b,DRSC16722,56300,49757,inactive
CG7903,DRSC16338,62330,54050,inactive
tsl (torso-like),DRSC17090,47910,57240,inactive
PGRP-SB2 (Peptidoglycan recognition protein SB2),DRSC11092,61300,54313,inactive
CG4360,DRSC15566,46870,48530,inactive
CG8774,DRSC16445,70493,26093,inactive
CG31855,DRSC02968,57577,65693,inactive
Zasp67 (Z band alternatively spliced PDZ-motif protein 67),DRSC10169,62810,71817,inactive
CG15249,DRSC17978,3.53e5,3.59e5,inactive
Syx18 (Syntaxin 18),DRSC14628,47923,49300,inactive
CG14989,DRSC08448,58950,42127,inactive
Rga (Regena),DRSC12364,58090,61440,inactive
xmas-1 (retired record),DRSC20386,2.83e5,2.91e5,inactive
NimA (Nimrod A),DRSC01353,2.01e5,1.54e5,inactive
CG13868,DRSC06427,52723,66560,inactive
CG3557,DRSC00614,93040,59557,inactive
DCP2 (Decapping protein 2),DRSC10597,21700,34040,inactive
spg (sponge),DRSC14373,62410,56090,inactive
spg (sponge),DRSC14881,59580,55860,inactive
Sema2a (Semaphorin 2a),DRSC07551,50133,62170,inactive
Nup44A (Nucleoporin at 44A),DRSC07248,60450,45753,inactive
Oat (Ornithine aminotransferase precursor),DRSC11043,21187,19677,inactive
tbc (trabuco),DRSC20540,2.49e5,2.70e5,inactive
Arc42 (Activator-recruited cofactor subunit 42),DRSC14340,54990,59650,inactive
Arc42 (Activator-recruited cofactor subunit 42),DRSC15627,84360,99830,inactive
Dph5 (Diphthamide methyltransferase),DRSC16653,50000,54177,inactive
Su(var)2-10 (Suppressor of variegation 2-10),DRSC07721,66823,65327,inactive
ftz-f1 (ftz transcription factor 1),DRSC11347,54100,34107,inactive
velo (veloren),DRSC08841,29770,42527,inactive
velo (veloren),DRSC09698,35800,32157,inactive
e(y)2b (enhancer of yellow 2b),DRSC12556,47930,66480,inactive
CG12817,DRSC14555,54420,44670,inactive
Ilk (Integrin linked kinase),DRSC11868,1.83e5,1.86e5,inactive
"mAChR-B (muscarinic Acetylcholine Receptor, B-type)",DRSC16345,43773,53367,inactive
CheB93a (Chemosensory protein B 93a),DRSC15044,34200,41040,inactive
CG18473,DRSC16381,68997,58180,inactive
cmb (combover),DRSC09790,71733,64977,inactive
CG6171,DRSC15982,45193,27820,inactive
CG14183,DRSC10182,20453,17397,inactive
svp (seven up),DRSC12899,2.29e5,1.88e5,inactive
svp (seven up),DRSC15311,18100,20087,inactive
svp (seven up),DRSC17075,59280,48600,inactive
SamDC (S-adenosylmethionine decarboxylase),DRSC03429,91403,60687,inactive
Sik2 (Salt-inducible kinase 2),DRSC18522,54130,55840,inactive
beat-VII (beaten path VII),DRSC13780,2.47e5,3.24e5,inactive
beat-VII (beaten path VII),DRSC14743,34370,49950,inactive
beat-VII (beaten path VII),DRSC14744,33830,37140,inactive
CG13837,DRSC14687,95820,73450,inactive
CG1632,DRSC17558,1.71e5,1.89e5,inactive
CG1632,DRSC18110,38850,38470,inactive
CG18268 + CG3014,DRSC15319,71247,70860,inactive
HLH3B (Helix loop helix protein 3B),DRSC18669,44380,56650,inactive
Cbp20 (cap binding protein 20),DRSC16601,39960,38780,inactive
CG9029,DRSC03129,30387,30157,inactive
lncRNA:sphinx + ATPsynF,DRSC17191,1.76e5,2.27e5,inactive
CG9171,DRSC03152,1.21e5,77790,inactive
CG10433,DRSC04068,84207,49520,inactive
Mrp5 (Multidrug resistance protein 5),DRSC15597,53360,51270,inactive
Mrp5 (Multidrug resistance protein 5),DRSC15598,84640,69290,inactive
pix (pixie),DRSC10533,54987,58067,inactive
BI-1 (Bax Inhibitor-1),DRSC10782,33297,28693,inactive
wat (waterproof),DRSC14854,69800,60700,inactive
Gel (Gelsolin),DRSC12350,17927,19350,inactive
Fic (Fic domain-containing protein),DRSC03247,80273,67513,inactive
"DCTN6-p27 (Dynactin 6, p27 subunit)",DRSC02609,73927,66310,inactive
CG2765,DRSC04315,51190,48120,inactive
Dyro (Dpt-YFP repressor by overexpression),DRSC10598,74847,56773,inactive
"Polr2L (RNA polymerase II, I and III subunit L)",DRSC14630,41590,40570,inactive
Oatp33Ea (Organic anion transporting polypeptide 33Ea),DRSC02859,89040,64480,inactive
Eaat2 (Excitatory amino acid transporter 2),DRSC00032,3.22e5,2.72e5,inactive
Eaat2 (Excitatory amino acid transporter 2),DRSC00749,1.23e5,66480,inactive

Part of the list above, showing only “raw ATP luminescence, replicate 2”.
CG33170 [DRSC11854]: 59097
CG32163 [DRSC09442]: 93860
CG7031 [DRSC16178]: 16790
CR40354 (pseudo) [DRSC20923]: 2.42e5
Or30a (Odorant receptor 30a) [DRSC03385]: 60723
Osi19 (Osiris 19) [DRSC12569]: 49503
